We go through one molecule from publication PMC8749076.

No constants are given. Whether binding was seen depends on the method and setting. Some entries that bind do so weakly or less than the wild type. Tags and fused reporters may be left off the sequences shown.

For the experiment, the target named is T1, His-FtsB (Escherichia coli) (UniProt P0A6S5).
T1 sequence: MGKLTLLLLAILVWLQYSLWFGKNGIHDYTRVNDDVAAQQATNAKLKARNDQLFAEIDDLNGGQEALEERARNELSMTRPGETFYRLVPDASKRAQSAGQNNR
Put plainly: co-purification on Ni-NTA; His-FtsB and Strep-FtsL_(35–121) co-expressed in E. coli BL21(DE3); complex extracted from membranes with 18 mM n-decyl-β-D-maltopyranoside; batch binding to Ni-NTA agarose 2 h at 4 °C; wash 50 mM imidazole, elution 300 mM imidazole, 300 mM NaCl, 25 mM Hepes pH 8.0, 510 μM DDM.

B1: Strep-FtsL_(35–121)–C41A–C45A (domain or fragment, UniProt P0AEN4 35-121)
chain: FGKLPLALFIAIILTAVTVVTTAHHTRLLTAQREQLVLERDALDIEWRNLILEENALGDHSRVERIATEKLQMQHVDPSQENIVVQK
Take B1: the binding result was “binds”.
